According to PMC9102673:

T1: DDIT4–APEX2 fusion protein (rigid linker) (human) (UniProt Q9NX09)
T1 sequence: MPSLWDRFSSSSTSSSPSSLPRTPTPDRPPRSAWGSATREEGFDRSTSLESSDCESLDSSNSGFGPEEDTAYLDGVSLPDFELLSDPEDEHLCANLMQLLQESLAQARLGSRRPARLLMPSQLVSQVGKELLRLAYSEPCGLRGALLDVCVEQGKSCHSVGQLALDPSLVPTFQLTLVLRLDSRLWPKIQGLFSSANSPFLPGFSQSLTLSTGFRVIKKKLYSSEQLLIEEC

B1: PCCA (protein, UniProt P05165 53-728)
chain: SVGYDPNEKTFDKILVANRGEIACRVIRTCKKMGIKTVAIHSDVDASSVHVKMADEAVCVGPAPTSKSYLNMDAIMEAIKKTRAQAVHPGYGFLSENKEFARCLAAEDVVFIGPDTHAIQAMGDKIESKLLAKKAEVNTIPGFDGVVKDAEEAVRIAREIGYPVMIKASAGGGGKGMRIAWDDEETRDGFRLSSQEAASSFGDDRLLIEKFIDNPRHIEIQVLGDKHGNALWLNERECSIQRRNQKVVEEAPSIFLDAETRRAMGEQAVALARAVKYSSAGTVEFLVDSKKNFYFLEMNTRLQVEHPVTECITGLDLVQEMIRVAKGYPLRHKQADIRINGWAVECRVYAEDPYKSFGLPSIGRLSQYQEPLHLPGVRVDSGIQPGSDISIYYDPMISKLITYGSDRTEALKRMADALDNYVIRGVTHNIALLREVIINSRFVKGDISTKFLSDVYPDGFKGHMLTKSEKNQLLAIASSLFVAFQLRAQHFQENSRMPVIKPDIANWELSVKLHDKVHTVVASNNGSVFSVEVDGSKLNVTSTWNLASPLLSVSVDGTQRTVQCLSREAGGNMSIQFLGTVYKVNILTRLAAELNKFMLEKVTEDTSSVLRSPMPGVVVAVSVKPGDAVAEGQEICVIEAMKMQNSMTAGKTGTVKSVHCQAGDTVGEGDLLVELE
B2: HTR3C (protein, UniProt Q8WXA8 28-447)
chain: FTINCSGFDQHGVDPAVFQAVFDRKAFRPFTNYSIPTRVNISFTLSAILGVDAQLQLLTSFLWMDLVWDNPFINWNPKECVGINKLTVLAENLWLPDIFIVESMDVDQTPSGLTAYISSEGRIKYDKPMRVTSICNLDIFYFPFDQQNCTFTFSSFLYTVDSMLLGMDKEVWEITDTSRKVIQTQGEWELLGINKATPKMSMGNNLYDQIMFYVAIRRRPSLYIINLLVPSSFLVAIDALSFYLPAESENRAPFKITLLLGYNVFLLMMNDLLPASGTPLISVYFALCLSLMVVSLLETVFITYLLHVATTQPPPMPRWLHSLLLHCTSPGRCCPTAPQKGNKGLGLTLTHLPGPKEPGELAGKKLGPRETEPDGGSGWTKTQLMELWVQFSHAMDTLLFRLYLLFMASSILTVIVLWNT
B3: ADAR (protein, UniProt P55265 1-1226)
chain: MNPRQGYSLSGYYTHPFQGYEHRQLRYQQPGPGSSPSSFLLKQIEFLKGQLPEAPVIGKQTPSLPPSLPGLRPRFPVLLASSTRGRQVDIRGVPRGVHLRSQGLQRGFQHPSPRGRSLPQRGVDCLSSHFQELSIYQDQEQRILKFLEELGEGKATTAHDLSGKLGTPKKEINRVLYSLAKKGKLQKEAGTPPLWKIAVSTQAWNQHSGVVRPDGHSQGAPNSDPSLEPEDRNSTSVSEDLLEPFIAVSAQAWNQHSGVVRPDSHSQGSPNSDPGLEPEDSNSTSALEDPLEFLDMAEIKEKICDYLFNVSDSSALNLAKNIGLTKARDINAVLIDMERQGDVYRQGTTPPIWHLTDKKRERMQIKRNTNSVPETAPAAIPETKRNAEFLTCNIPTSNASNNMVTTEKVENGQEPVIKLENRQEARPEPARLKPPVHYNGPSKAGYVDFENGQWATDDIPDDLNSIRAAPGEFRAIMEMPSFYSHGLPRCSPYKKLTECQLKNPISGLLEYAQFASQTCEFNMIEQSGPPHEPRFKFQVVINGREFPPAEAGSKKVAKQDAAMKAMTILLEEAKAKDSGKSEESSHYSTEKESEKTAESQTPTPSATSFFSGKSPVTTLLECMHKLGNSCEFRLLSKEGPAHEPKFQYCVAVGAQTFPSVSAPSKKVAKQMAAEEAMKALHGEATNSMASDNQPEGMISESLDNLESMMPNKVRKIGELVRYLNTNPVGGLLEYARSHGFAAEFKLVDQSGPPHEPKFVYQAKVGGRWFPAVCAHSKKQGKQEAADAALRVLIGENEKAERMGFTEVTPVTGASLRRTMLLLSRSPEAQPKTLPLTGSTFHDQIAMLSHRCFNTLTNSFQPSLLGRKILAAIIMKKDSEDMGVVVSLGTGNRCVKGDSLSLKGETVNDCHAEIISRRGFIRFLYSELMKYNSQTAKDSIFEPAKGGEKLQIKKTVSFHLYISTAPCGDGALFDKSCSDRAMESTESRHYPVFENPKQGKLRTKVENGEGTIPVESSDIVPTWDGIRLGERLRTMSCSDKILRWNVLGLQGALLTHFLQPIYLKSVTLGYLFSQGHLTRAICCRVTRDGSAFEDGLRHPFIVNHPKVGRVSIYDSKRQSGKTKETSVNWCLADGYDLEILDGTRGTVDGPRNELSRVSKKNIFLLFKKLCSFRYRRDLLRLSYGEAKKAARDYETAKNYFKKGLKDMGYGNWISKPQEEKNFYLCPV
B4: ERCC6L (protein, UniProt Q2NKX8 1-1250)
chain: MEASRRFPEAEALSPEQAAHYLRYVKEAKEATKNGDLEEAFKLFNLAKDIFPNEKVLSRIQKIQEALEELAEQGDDEFTDVCNSGLLLYRELHNQLFEHQKEGIAFLYSLYRDGRKGGILADDMGLGKTVQIIAFLSGMFDASLVNHVLLIMPTNLINTWVKEFIKWTPGMRVKTFHGPSKDERTRNLNRIQQRNGVIITTYQMLINNWQQLSSFRGQEFVWDYVILDEAHKIKTSSTKSAICARAIPASNRLLLTGTPIQNNLQELWSLFDFACQGSLLGTLKTFKMEYENPITRAREKDATPGEKALGFKISENLMAIIKPYFLRRTKEDVQKKKSSNPEARLNEKNPDVDAICEMPSLSRKNDLIIWIRLVPLQEEIYRKFVSLDHIKELLMETRSPLAELGVLKKLCDHPRLLSARACCLLNLGTFSAQDGNEGEDSPDVDHIDQVTDDTLMEESGKMIFLMDLLKRLRDEGHQTLVFSQSRQILNIIERLLKNRHFKTLRIDGTVTHLLEREKRINLFQQNKDYSVFLLTTQVGGVGLTLTAATRVVIFDPSWNPATDAQAVDRVYRIGQKENVVVYRLITCGTVEEKIYRRQVFKDSLIRQTTGEKKNPFRYFSKQELRELFTIEDLQNSVTQLQLQSLHAAQRKSDIKLDEHIAYLQSLGIAGISDHDLMYTCDLSVKEELDVVEESHYIQQRVQKAQFLVEFESQNKEFLMEQQRTRNEGAWLREPVFPSSTKKKCPKLNKPQPQPSPLLSTHHTQEEDISSKMASVVIDDLPKEGEKQDLSSIKVNVTTLQDGKGTGSADSIATLPKGFGSVEELCTNSSLGMEKSFATKNEAVQKETLQEGPKQEALQEDPLESFNYVLSKSTKADIGPNLDQLKDDEILRHCNPWPIISITNESQNAESNVSIIEIADDLSASHSALQDAQASEAKLEEEPSASSPQYACDFNLFLEDSADNRQNFSSQSLEHVEKENSLCGSAPNSRAGFVHSKTCLSWEFSEKDDEPEEVVVKAKIRSKARRIVSDGEDEDDSFKDTSSINPFNTSLFQFSSVKQFDASTPKNDISPPGRFFSSQIPSSVNKSMNSRRSLASRRSLINMVLDHVEDMEERLDDSSEAKGPEDYPEEGVEESSGEASKYTEEDPSGETLSSENKSSWLMTSKPSALAQETSLGAPEPLSGEQLVGSPQDKAAEATNDYETLVKRGKELKECGKIQEALNCLVKALDIKSADPEVMLLTLSLYKQLNNN
B5: MCCC1 (protein, UniProt Q96RQ3 42-725)
chain: TTATGRNITKVLIANRGEIACRVMRTAKKLGVQTVAVYSEADRNSMHVDMADEAYSIGPAPSQQSYLSMEKIIQVAKTSAAQAIHPGCGFLSENMEFAELCKQEGIIFIGPPPSAIRDMGIKSTSKSIMAAAGVPVVEGYHGEDQSDQCLKEHARRIGYPVMIKAVRGGGGKGMRIVRSEQEFQEQLESARREAKKSFNDDAMLIEKFVDTPRHVEVQVFGDHHGNAVYLFERDCSVQRRHQKIIEEAPAPGIKSEVRKKLGEAAVRAAKAVNYVGAGTVEFIMDSKHNFCFMEMNTRLQVEHPVTEMITGTDLVEWQLRIAAGEKIPLSQEEITLQGHAFEARIYAEDPSNNFMPVAGPLVHLSTPRADPSTRIETGVRQGDEVSVHYDPMIAKLVVWAADRQAALTKLRYSLRQYNIVGLHTNIDFLLNLSGHPEFEAGNVHTDFIPQHHKQLLLSRKAAAKESLCQAALGLILKEKAMTDTFTLQAHDQFSPFSSSSGRRLNISYTRNMTLKDGKNNVAIAVTYNHDGSYSMQIEDKTFQVLGNLYSEGDCTYLKCSVNGVASKAKLIILENTIYLFSKEGSIEIDIPVPKYLSSVSSQETQGGPLAPMTGTIEKVFVKAGDKVKAGDSLMVMIAMKMEHTIKSPKDGTVKKVFYREGAQANRHTPLVEFEEEESDKRESE
B6: S100A8 (protein, UniProt P05109 1-93)
chain: MLTELEKALNSIIDVYHKYSLIKGNFHAVYRDDLKKLLETECPQYIRKKGADVWFKELDINTDGAVNFQEFLILVIKMGVAAHKKSHEESHKE
B7: JUP (protein, UniProt P14923 1-745)
chain: MEVMNLMEQPIKVTEWQQTYTYDSGIHSGANTCVPSVSSKGIMEEDEACGRQYTLKKTTTYTQGVPPSQGDLEYQMSTTARAKRVREAMCPGVSGEDSSLLLATQVEGQATNLQRLAEPSQLLKSAIVHLINYQDDAELATRALPELTKLLNDEDPVVVTKAAMIVNQLSKKEASRRALMGSPQLVAAVVRTMQNTSDLDTARCTTSILHNLSHHREGLLAIFKSGGIPALVRMLSSPVESVLFYAITTLHNLLLYQEGAKMAVRLADGLQKMVPLLNKNNPKFLAITTDCLQLLAYGNQESKLIILANGGPQALVQIMRNYSYEKLLWTTSRVLKVLSVCPSNKPAIVEAGGMQALGKHLTSNSPRLVQNCLWTLRNLSDVATKQEGLESVLKILVNQLSVDDVNVLTCATGTLSNLTCNNSKNKTLVTQNSGVEALIHAILRAGDKDDITEPAVCALRHLTSRHPEAEMAQNSVRLNYGIPAIVKLLNQPNQWPLVKATIGLIRNLALCPANHAPLQEAAVIPRLVQLLVKAHQDAQRHVAAGTQQPYTDGVRMEEIVEGCTGALHILARDPMNRMEIFRLNTIPLFVQLLYSSVENIQRVAAGVLCELAQDKEAADAIDAEGASAPLMELLHSRNEGTATYAAAVLFRISEDKNPDYRKRVSVELTNSLFKHDPAAWEAAQSMIPINEPYGDDMDATYRPMYSSDVPLDPLEMHMDMDGDYPIDTYSDGLRPPYPTADHMLA

Molecular target: T1, DDIT4–APEX2 fusion protein (rigid linker) (human)
Test: proximity labelling; DDIT4–APEX2 (rigid linker) expressed in SK-N-SH cells; 1 mM biotin tyramide 45 min at 37 °C with or without 330 μM NaAsO2, 1 mM H2O2 for 1.5 min; biotinylated proteins captured on streptavidin magnetic particles and identified by LC-MS/MS; proteins labelled by APEX2 alone filtered out

binding, binds:
B1, B2, B3, B4, B5, B6, B7

Results are given in words; binding and its absence hold for the method and conditions named. Binding seen in cells or lysates may run through a third protein. These calls come from enrichment with a bait or labelling near it, and not all partners need be listed. Where a sequence is shown, tags or fusion partners need not be part of it.
